Measured values published in paper PMC7647994 (2020).
These are yes or no findings as the source states them, for the method shown. Binding seen in cells or lysates may run through a third protein. For some of these results: Binding calls can cover weak binding; strength is not graded here. Where a sequence is shown, tags or fusion partners need not be part of it. Blank lines part the entries; values can stand above or below the binder they belong to.

Legend:
[1] = target: ZBD4A, zinc-binding domain of human CLPX with residues 120-123 (SSTR) replaced with AAAA (human); assay: pull-down; H10-tagged CLPX domains (ZBD, ZBD4A, E-domain, ecZBD) immobilised to Ni-NTA agarose, E. coli lysate with GST-PDIP38 or untagged PDIP38 applied; 20 mM HEPES-KOH pH 7.5, 100 mM K(OAc), 65 mM imidazole, 0.5% Triton X-100, 4 °C, 30 min; only the target purified
[2] = target: H10-tagged zinc-binding domain of human CLPX (human); assay: as above
[3] = target: CLPX4A, full-length human CLPX with residues 120-123 (SSTR) replaced with AAAA (human); assay: pull-down; H10-tagged full-length CLPX (wild type or 4A) immobilised to Ni-NTA agarose, E. coli lysate with GST-PDIP38, GST-PDIP38N, GST-PDIP38C or untagged PDIP38 applied; 20 mM HEPES-KOH pH 7.5, 100 mM K(OAc), 65 mM imidazole, 0.5% Triton X-100, 2 mM ATP, 10 mM β-mercaptoethanol, 4 °C, 30 min; only the target purified
[4] = target: His10-tagged human CLPX (H10CLPX) (human); assay: as above
[5] = target: H10-tagged E-domain of human CLPX (human); assay: pull-down; H10-tagged CLPX domains (ZBD, ZBD4A, E-domain, ecZBD) immobilised to Ni-NTA agarose, E. coli lysate with GST-PDIP38 or untagged PDIP38 applied; 20 mM HEPES-KOH pH 7.5, 100 mM K(OAc), 65 mM imidazole, 0.5% Triton X-100, 4 °C, 30 min; only the target purified
[6] = target: H10-tagged zinc-binding domain of E. coli ClpX (Escherichia coli); assay: as above

- binding [5]: no binding
- binding [2]: binds
- binding [6]: no binding
- binding [4]: binds
B2: GST-PDIP38 fusion protein (natural protein)
chain: SSRNRPEGKVLETVGVFEVPKQNGKYETGQLFLHSIFGYRGVVLFPWQARLYDRDVASAAPEKAENPAGHGSKEVKGKTHTYYQVLIDARDCPHISQRSQTEAVTFLANHDDSRALYAIPGLDYVSHEDILPYTSTDQVPIQHELFERFLLYDQTKAPPFVARETLRAWQEKNHPWLELSDVHRETTENIRVTVIPFYMGMREAQNSHVYWWRYCIRLENLDSDVVQLRERHWRIFSLSGTLETVRGRGVVGREPVLSKEQPAFQYSSHVSLQASSGHMWGTFRFERPDGSHFDVRIPPFSLESNKDEKTPPSGLHW

- binding [4]: binds
B4: GST-PDIP38N, N-terminal domain of PDIP38 fused to GST (domain or fragment, UniProt Q9Y2S7 52-153)
chain: SSRNRPEGKVLETVGVFEVPKQNGKYETGQLFLHSIFGYRGVVLFPWQARLYDRDVASAAPEKAENPAGHGSKEVKGKTHTYYQVLIDARDCPHISQRSQTE

Second part, the binder before the results:

B1: untagged PDIP38 (protein, UniProt Q9Y2S7 52-368)
chain: B2 chain
- binding [1]: no binding
- binding [2]: binds
- binding [3]: no binding
- binding [4]: binds

B3: GST-PDIP38C, C-terminal domain of PDIP38 fused to GST (domain or fragment, UniProt Q9Y2S7 157-368)
chain: FLANHDDSRALYAIPGLDYVSHEDILPYTSTDQVPIQHELFERFLLYDQTKAPPFVARETLRAWQEKNHPWLELSDVHRETTENIRVTVIPFYMGMREAQNSHVYWWRYCIRLENLDSDVVQLRERHWRIFSLSGTLETVRGRGVVGREPVLSKEQPAFQYSSHVSLQASSGHMWGTFRFERPDGSHFDVRIPPFSLESNKDEKTPPSGLHW
- binding [4]: no binding
